Patent US7608595B2, “4″-deoxy-4″-(S)-amido avermectin derivatives” (Merial Limited, priority 2002, dated 2009)
Some of these results come from one statement about several compounds together.

What was measured:
Assay type in all cases: in vivo
Spodoptera littoralis = assay: Action against Spodoptera littoralis (sprayed soybean plants); settings: 12.5 ppm test compound, spray on young soybean plants, caterpillars in the first stage, 3 days later
Heliothis virescens = assay: Action against Heliothis virescens (eggs on filter paper); settings: 12.5 ppm test compound, 0.8 ml on filter paper, eggs 0 to 24 hours old, evaluation 6 days later
Plutella xylostella = assay: Action against Plutella xylostella caterpillars (sprayed cabbage plants); settings: 12.5 ppm test compound, spray on young cabbage plants, caterpillars in the first stage, 3 days later
Diabrotica balteata = assay: Action against Diabrotica balteata (sprayed maize seedlings); settings: 12.5 ppm test compound, spray on maize seedlings, larvae in the second stage, 6 days later
Tetranychus urticae = assay: Action against Tetranychus urticae (sprayed bean plants); settings: 12.5 ppm test compound, spray on young bean plants, mixed population, 6 days at 25° C.

4″-deoxy-4″-(S)—N-methyl-methoxyacetylamino-avermectin B1 [1.004]
more than 90%: percentage reduction in population and percentage reduction in feeding damage (% activity) (Spodoptera littoralis) | percentage reduction in population (% activity) (Heliothis virescens) | percentage reduction in population and percentage reduction in feeding damage (% activity) (Plutella xylostella) | percentage reduction in population (% activity) (Diabrotica balteata) | percentage reduction in population (% activity) (Tetranychus urticae)

4″-deoxy-4″-(S)—N-methyl-acetylamino-avermectin B1 [1.002]
more than 90%: percentage reduction in population and percentage reduction in feeding damage (% activity) (Spodoptera littoralis) | percentage reduction in population (% activity) (Heliothis virescens) | percentage reduction in population and percentage reduction in feeding damage (% activity) (Plutella xylostella) | percentage reduction in population (% activity) (Diabrotica balteata) | percentage reduction in population (% activity) (Tetranychus urticae)
